Experimental data reported in US11209732B2, “Near infrared absorbing composition, film, infrared cut filter, solid image pickup element, infrared absorber, and compound” (FUJIFILM Corporation, priority 2015, dated 2021).
Some entries share one result that the patent states for a list of compounds.

Key:
[1] = Absorption maximum of compound in chloroform solution; type: physicochemical
Method: The absorption maximum of the squarylium compound (1) is a value measured using a chloroform solution of the squarylium compound that is adjusted such that an absorbance at the absorption maximum is in a range of 0.7 to 1.2.
Each of the obtained compounds was dissolved in chloroform to prepare a solution having a concentration of 1 g/L. Next, the solution in which each of the compounds was dissolved was appropriately diluted such that an absorbance at an absorption maximum in an absorption spectrum thereof was in a range of 0.7 to 1.2, and the absorption maximum (λmax) thereof was measured using UV-1800 (manufactured by Shimadzu Corporation).

[2] = Solubility of compound in solvents at 25° C.; type: physicochemical; conditions: cyclohexanone, PGMEA, toluene
Method: The solubility of each of the compounds in each of solvents (cyclohexanone, propylene glycol monomethyl ether acetate (PGMEA), toluene) at 25° C. was evaluated based on the following criteria.
A: the solubility of the compound in the solvent at 25° C. was 2 mass % or higher

[3] = absorbance at maximum 0.7 to 1.2

| Compound | Solubility in each of the solvents (in words) [2] | Absorption Maximum (nm) [1, 3] | also measured |
| --- | --- | --- | --- |
| CCCCCCC1=CC(=[N+](c2ccc3ccccc3c2)c2ccc3ccccc3c2)S/C1=C1\C(=O)C(c2sc(N(c3ccc4ccccc4c3)c3ccc4ccccc4c3)cc2CCCCCC)=C1[O-] [Compound 1] | excellent | – | Absorption Maximum (nm) ([1]; absorbance at maximum 0.7 to 1.2, listed as compound 1): ≥ 700 nm |
| CCCCCCCCc1ccc(N(c2ccc(CCCCCCCC)cc2)c2cc3sc(C4=C([O-])/C(=c5\cc6c(s5)=CC(=[N+](c5ccc(CCCCCCCC)cc5)c5ccc(CCCCCCCC)cc5)S6)C4=O)cc3s2)cc1 [Compound 2] | excellent | – | Absorption Maximum (nm) ([1]; absorbance at maximum 0.7 to 1.2, listed as compound 2): ≥ 700 nm |
| CCCCCCCCc1ccc(N(c2ccc(CCCCCCCC)cc2)c2ccc(/C=C/c3ccc(C4=C([O-])/C(=c5\cc/c(=C\C=C6/C=CC(=[N+](c7ccc(CCCCCCCC)cc7)c7ccc(CCCCCCCC)cc7)S6)s5)C4=O)s3)s2)cc1 [Compound 4] | excellent | – | Absorption Maximum (nm) ([1]; absorbance at maximum 0.7 to 1.2, listed as compound 4): ≥ 700 nm |
| CCCCCCc1cc(-c2ccc(N(c3ccc(C)cc3)c3ccc(C)cc3)s2)sc1C1=C([O-])/C(=c2/s/c(=C3\C=CC(=[N+](c4ccc(C)cc4)c4ccc(C)cc4)S3)cc2CCCCCC)C1=O [Compound 5] | excellent | – | – |
| O=C1C(c2sc(N(c3ccccc3)c3ccccc3)nc2-c2ccccc2)=C([O-])/C1=C1/SC(=[N+](c2ccccc2)c2ccccc2)N=C1c1ccccc1 [Compound R-1, reference compound] | – | < 700 nm | – |
| CCCCCCCCCCCCN(c1ccccc1)c1ccc(C2=C([O-])/C(=C3C=C/C(=[N+](\CCCCCCCCCCCC)CCNS(=O)(=O)CCCC)C=C/3O)C2=O)s1 [Compound R-2, reference compound] | – | < 700 nm | – |
